Measured values reported in the M2OR odorant receptor database.
The list shows a part of the results. Calls are pooled over several reports, among them a noisy single-well screen.

What was measured:
Conditions in all cases: stereoisomer not certain
O52I2 = system: T1, O52I2
T1 sequence (whole entry): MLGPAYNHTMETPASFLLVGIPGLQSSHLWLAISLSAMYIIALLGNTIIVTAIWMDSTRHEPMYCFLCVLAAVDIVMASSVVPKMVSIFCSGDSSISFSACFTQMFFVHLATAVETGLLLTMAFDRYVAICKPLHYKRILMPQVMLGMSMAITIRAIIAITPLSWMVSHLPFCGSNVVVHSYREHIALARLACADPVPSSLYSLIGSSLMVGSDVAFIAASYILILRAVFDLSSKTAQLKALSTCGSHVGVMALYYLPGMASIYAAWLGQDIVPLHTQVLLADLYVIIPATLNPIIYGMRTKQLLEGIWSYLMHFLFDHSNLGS
Summary of the method: (§1)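 Values were gathered from published papers (main text and supplementary material), with extra details requested from the original authors when needed, and checked for typos and inconsistencies. Each receptor–molecule pair is called responsive (active) if the original authors judged the measured signal statistically different from baseline, and non-responsive (inactive) otherwise. Assay methods varied by source, often transient mammalian cell-line luciferase assays. Recorded details include cell line, G-protein, co-transfected protein and tags.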

O52L1 = system: T2, O52L1
T2 sequence (whole entry): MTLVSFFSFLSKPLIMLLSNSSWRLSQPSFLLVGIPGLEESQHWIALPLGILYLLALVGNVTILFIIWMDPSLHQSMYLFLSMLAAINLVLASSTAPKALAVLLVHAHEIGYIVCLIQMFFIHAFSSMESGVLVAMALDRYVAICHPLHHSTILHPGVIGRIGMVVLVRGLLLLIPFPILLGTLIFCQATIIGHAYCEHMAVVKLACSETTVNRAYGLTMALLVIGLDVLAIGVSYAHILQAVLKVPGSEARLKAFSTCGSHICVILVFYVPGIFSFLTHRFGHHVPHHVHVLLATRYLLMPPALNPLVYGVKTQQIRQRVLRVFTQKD
Summary of the method: as §1

O52M1 = system: T3, O52M1
T3 sequence (whole entry): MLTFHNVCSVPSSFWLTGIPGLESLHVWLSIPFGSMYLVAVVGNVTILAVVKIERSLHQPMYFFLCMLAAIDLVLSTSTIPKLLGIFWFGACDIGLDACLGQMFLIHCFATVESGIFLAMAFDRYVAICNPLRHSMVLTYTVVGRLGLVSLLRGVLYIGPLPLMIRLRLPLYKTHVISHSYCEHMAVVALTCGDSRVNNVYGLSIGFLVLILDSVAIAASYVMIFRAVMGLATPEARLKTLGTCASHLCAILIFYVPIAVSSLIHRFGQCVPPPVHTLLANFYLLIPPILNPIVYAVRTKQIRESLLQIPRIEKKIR
Summary of the method: as §1

O52N1 = system: T4, O52N1
T4 sequence (whole entry): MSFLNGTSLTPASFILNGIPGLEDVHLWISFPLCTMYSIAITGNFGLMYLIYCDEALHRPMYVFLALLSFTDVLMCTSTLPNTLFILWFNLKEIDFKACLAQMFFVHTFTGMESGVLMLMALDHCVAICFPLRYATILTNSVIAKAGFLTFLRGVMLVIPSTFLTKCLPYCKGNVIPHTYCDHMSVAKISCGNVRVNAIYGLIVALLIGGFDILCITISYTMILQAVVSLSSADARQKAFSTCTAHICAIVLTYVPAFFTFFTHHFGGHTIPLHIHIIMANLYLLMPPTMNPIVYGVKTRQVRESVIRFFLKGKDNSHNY
Summary of the method: as §1

O52P1 = system: T5, O52P1
T5 sequence (whole entry): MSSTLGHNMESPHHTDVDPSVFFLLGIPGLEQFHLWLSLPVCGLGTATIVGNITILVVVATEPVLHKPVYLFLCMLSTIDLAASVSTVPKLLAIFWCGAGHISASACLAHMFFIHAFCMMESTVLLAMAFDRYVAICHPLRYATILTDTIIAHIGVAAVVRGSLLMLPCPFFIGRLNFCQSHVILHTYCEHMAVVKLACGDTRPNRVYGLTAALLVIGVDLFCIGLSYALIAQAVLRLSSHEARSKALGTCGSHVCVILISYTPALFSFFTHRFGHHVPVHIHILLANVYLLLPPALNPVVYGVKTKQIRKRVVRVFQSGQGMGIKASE
Summary of the method: as §1

O56A3 = system: T6, O56A3
T6 sequence (whole entry): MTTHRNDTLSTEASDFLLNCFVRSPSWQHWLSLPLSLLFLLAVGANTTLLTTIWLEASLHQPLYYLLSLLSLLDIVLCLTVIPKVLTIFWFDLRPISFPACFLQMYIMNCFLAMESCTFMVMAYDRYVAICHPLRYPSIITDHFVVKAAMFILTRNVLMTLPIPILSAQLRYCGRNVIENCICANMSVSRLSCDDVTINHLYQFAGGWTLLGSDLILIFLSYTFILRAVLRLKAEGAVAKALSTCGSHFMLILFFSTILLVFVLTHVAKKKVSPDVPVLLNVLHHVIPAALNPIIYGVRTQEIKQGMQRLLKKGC
Summary of the method: as §1

O56B1 = system: T7, O56B1
T7 sequence (whole entry): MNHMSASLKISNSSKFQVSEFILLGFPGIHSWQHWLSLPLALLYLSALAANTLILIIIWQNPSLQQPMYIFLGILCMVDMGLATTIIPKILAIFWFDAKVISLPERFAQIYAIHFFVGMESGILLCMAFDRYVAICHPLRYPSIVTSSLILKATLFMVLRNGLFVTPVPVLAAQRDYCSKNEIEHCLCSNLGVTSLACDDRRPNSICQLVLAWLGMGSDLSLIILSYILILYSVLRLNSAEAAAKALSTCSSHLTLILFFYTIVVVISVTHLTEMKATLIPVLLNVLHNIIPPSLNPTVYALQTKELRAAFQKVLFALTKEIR
Summary of the method: as §1

O56B4 = system: T8, O56B4
T8 sequence (whole entry): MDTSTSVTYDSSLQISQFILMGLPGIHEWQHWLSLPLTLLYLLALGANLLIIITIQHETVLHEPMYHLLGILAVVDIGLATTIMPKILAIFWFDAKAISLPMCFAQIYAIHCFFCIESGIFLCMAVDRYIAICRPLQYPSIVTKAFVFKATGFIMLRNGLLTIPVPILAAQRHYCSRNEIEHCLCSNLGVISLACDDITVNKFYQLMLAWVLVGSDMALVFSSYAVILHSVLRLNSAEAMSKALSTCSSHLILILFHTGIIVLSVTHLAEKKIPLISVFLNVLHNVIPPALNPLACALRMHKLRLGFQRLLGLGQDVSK
Summary of the method: as §1

O5AC2 = system: T9, O5AC2
T9 sequence (whole entry): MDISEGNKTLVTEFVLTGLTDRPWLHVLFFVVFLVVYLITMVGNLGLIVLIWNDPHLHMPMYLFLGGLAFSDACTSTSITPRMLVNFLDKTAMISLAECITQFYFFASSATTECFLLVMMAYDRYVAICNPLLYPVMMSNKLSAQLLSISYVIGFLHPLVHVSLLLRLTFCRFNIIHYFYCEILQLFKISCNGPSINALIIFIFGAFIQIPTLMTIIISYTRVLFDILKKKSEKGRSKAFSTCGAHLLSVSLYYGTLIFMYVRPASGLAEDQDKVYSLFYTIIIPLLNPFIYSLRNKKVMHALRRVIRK
Summary of the method: as §1

O5AK2 = system: T10, O5AK2
T10 sequence (whole entry): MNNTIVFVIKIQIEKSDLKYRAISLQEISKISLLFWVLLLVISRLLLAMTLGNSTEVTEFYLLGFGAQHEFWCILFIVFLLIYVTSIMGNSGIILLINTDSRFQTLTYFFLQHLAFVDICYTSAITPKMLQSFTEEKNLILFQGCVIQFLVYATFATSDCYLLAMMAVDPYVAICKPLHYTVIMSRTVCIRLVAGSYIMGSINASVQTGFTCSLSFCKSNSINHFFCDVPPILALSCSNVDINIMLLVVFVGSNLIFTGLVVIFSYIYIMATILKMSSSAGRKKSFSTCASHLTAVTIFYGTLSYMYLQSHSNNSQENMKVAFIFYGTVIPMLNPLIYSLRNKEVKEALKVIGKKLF
Summary of the method: as §1

O5AK3 = system: T11, O5AK3
T11 sequence (whole entry): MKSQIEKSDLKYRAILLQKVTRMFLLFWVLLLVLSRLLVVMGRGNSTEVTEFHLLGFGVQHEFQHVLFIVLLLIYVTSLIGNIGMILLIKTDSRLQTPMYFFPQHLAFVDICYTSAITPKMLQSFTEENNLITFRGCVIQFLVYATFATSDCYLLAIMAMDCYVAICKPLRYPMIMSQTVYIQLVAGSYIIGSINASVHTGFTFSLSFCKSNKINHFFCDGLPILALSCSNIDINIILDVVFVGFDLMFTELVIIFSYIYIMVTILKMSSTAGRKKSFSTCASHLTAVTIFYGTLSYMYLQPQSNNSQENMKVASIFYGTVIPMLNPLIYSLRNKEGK
Summary of the method: as §1

O52J3 = system: T12, O52J3
T12 sequence (whole entry): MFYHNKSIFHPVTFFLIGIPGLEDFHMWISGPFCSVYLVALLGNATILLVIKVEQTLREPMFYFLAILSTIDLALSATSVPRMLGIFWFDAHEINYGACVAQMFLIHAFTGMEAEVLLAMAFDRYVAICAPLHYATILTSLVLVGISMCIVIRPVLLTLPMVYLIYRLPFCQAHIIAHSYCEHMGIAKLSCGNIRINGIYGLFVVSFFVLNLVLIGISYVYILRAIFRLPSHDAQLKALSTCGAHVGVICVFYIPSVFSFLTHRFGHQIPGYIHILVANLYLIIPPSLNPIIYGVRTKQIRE
Summary of the method: as §1

O52L2 = system: T13, O52L2
T13 sequence (whole entry): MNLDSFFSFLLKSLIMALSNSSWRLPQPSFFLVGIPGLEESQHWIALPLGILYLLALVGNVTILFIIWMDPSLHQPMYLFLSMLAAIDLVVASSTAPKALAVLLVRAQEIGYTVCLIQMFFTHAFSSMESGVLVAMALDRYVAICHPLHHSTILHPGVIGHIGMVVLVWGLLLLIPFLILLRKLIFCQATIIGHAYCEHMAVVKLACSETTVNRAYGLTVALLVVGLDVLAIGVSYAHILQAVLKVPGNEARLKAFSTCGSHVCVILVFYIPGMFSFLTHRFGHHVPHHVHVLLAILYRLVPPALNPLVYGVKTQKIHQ
Summary of the method: as §1

O52N2 = system: T14, O52N2
T14 sequence (whole entry): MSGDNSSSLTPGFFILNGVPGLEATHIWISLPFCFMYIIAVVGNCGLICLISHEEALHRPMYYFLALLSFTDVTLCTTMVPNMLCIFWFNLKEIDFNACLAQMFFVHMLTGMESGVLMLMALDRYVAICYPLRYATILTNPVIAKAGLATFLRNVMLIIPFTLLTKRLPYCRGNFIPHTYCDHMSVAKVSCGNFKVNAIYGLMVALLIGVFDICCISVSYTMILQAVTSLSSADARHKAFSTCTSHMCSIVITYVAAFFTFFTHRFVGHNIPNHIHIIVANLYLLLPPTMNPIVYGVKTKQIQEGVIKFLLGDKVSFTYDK
Summary of the method: as §1

O52N4 = system: T15, O52N4
T15 sequence (whole entry): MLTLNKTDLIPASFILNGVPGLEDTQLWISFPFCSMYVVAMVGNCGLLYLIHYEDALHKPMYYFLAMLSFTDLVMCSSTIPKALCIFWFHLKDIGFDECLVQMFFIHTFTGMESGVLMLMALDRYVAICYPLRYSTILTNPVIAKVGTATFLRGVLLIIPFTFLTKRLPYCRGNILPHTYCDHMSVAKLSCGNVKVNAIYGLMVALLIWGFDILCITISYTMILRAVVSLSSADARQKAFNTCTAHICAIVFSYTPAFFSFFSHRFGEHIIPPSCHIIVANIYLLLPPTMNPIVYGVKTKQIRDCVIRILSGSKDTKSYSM
Summary of the method: as §1

O52R1 = system: T16, O52R1
T16 sequence (whole entry): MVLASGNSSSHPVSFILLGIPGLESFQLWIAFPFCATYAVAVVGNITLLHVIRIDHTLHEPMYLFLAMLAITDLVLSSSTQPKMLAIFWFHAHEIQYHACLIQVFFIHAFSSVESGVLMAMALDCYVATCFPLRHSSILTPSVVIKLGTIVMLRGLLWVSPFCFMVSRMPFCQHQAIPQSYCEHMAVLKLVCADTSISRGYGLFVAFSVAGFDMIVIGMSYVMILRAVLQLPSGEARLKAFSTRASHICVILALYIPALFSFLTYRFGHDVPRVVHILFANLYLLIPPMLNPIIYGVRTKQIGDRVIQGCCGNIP
Summary of the method: as §1

O52W1 = system: T17, O52W1
T17 sequence (whole entry): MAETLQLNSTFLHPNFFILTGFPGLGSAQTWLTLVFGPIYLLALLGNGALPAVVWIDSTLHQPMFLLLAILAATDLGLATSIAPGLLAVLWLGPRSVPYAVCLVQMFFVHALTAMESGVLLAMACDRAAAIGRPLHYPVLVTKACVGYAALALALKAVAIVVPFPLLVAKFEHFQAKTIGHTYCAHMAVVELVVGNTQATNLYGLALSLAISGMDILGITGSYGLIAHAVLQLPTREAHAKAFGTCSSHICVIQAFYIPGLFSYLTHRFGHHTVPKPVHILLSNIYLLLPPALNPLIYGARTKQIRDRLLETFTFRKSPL
Summary of the method: as §1

Measured: odorant receptor agonist call

CC1=NC(C)SC1C (centres undefined)
active: O52L1
not listed: O52J3 | O52L2 | O52N2 | O52N4 | O52R1 | O52W1
inactive: all other assays above

C=CC(C)(O)CCC=C(C)C (centres undefined)
inactive: all assays above

O=CCc1ccccc1
active: O52N2 | O52N4
inactive: all other assays above

COC(=O)c1ccccc1
not listed: O52L1 | O52J3 | O52L2 | O52N2 | O52N4 | O52R1 | O52W1
inactive: all other assays above

CC(=O)c1ccccc1
not listed: O52L1 | O52J3 | O52L2 | O52N2 | O52N4 | O52R1 | O52W1
inactive: all other assays above

CC=Cc1ccc(O)c(OC)c1
active: O52I2 | O52N2 | O52N4 | O52P1 | O52R1 | O52W1
inactive: all other assays above

CCCCCC(=O)O
inactive: all assays above
